# Some of the results follow.
# Sequences of proteins named here, by UniProt entry; tags and fusion partners are left off. A change or cut given only in a name is not applied to a line headed by its entry.
# UniProt O43312: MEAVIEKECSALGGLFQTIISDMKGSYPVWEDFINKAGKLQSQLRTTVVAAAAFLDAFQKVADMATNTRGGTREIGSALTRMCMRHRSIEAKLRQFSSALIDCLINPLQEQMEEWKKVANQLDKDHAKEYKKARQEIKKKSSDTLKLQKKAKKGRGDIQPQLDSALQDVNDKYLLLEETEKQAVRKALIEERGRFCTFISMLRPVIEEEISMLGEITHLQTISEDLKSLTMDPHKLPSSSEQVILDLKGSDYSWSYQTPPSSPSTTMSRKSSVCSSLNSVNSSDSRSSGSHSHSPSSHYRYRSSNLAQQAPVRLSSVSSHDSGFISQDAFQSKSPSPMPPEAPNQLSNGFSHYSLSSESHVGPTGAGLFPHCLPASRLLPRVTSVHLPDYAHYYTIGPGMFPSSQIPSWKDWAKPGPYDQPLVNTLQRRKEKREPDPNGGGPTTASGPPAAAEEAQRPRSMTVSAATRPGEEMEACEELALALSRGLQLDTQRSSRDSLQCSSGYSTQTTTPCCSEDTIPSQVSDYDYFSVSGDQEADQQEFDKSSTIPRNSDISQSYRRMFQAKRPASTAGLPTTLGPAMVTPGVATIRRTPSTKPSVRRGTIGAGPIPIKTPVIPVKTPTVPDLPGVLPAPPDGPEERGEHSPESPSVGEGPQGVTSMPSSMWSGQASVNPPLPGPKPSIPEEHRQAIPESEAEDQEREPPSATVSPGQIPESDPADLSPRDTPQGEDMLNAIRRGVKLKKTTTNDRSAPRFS
# UniProt O15457: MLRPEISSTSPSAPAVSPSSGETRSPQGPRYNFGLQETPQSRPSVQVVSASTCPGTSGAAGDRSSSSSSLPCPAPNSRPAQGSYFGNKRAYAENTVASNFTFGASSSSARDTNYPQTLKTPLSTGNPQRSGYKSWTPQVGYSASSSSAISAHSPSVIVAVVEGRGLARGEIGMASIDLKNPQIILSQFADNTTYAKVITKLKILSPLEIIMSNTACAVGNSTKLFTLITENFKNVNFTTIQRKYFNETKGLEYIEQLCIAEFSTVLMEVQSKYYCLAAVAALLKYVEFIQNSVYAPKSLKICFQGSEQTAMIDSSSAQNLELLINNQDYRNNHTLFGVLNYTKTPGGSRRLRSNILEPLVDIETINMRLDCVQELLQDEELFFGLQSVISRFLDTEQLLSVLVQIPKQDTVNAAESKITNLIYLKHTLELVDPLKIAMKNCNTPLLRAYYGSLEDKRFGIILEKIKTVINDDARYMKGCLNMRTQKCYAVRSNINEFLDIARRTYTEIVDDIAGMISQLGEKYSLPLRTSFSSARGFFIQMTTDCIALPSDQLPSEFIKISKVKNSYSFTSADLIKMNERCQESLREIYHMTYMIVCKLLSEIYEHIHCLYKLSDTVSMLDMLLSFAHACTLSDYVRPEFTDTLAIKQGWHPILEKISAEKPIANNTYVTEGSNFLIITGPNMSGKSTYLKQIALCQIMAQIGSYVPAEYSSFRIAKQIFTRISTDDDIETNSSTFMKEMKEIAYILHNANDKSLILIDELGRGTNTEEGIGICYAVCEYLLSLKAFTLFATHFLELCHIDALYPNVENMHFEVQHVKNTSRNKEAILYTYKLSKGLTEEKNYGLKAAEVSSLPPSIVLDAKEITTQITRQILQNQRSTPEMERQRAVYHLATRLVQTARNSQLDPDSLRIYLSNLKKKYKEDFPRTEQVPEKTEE
# UniProt Q96EF0: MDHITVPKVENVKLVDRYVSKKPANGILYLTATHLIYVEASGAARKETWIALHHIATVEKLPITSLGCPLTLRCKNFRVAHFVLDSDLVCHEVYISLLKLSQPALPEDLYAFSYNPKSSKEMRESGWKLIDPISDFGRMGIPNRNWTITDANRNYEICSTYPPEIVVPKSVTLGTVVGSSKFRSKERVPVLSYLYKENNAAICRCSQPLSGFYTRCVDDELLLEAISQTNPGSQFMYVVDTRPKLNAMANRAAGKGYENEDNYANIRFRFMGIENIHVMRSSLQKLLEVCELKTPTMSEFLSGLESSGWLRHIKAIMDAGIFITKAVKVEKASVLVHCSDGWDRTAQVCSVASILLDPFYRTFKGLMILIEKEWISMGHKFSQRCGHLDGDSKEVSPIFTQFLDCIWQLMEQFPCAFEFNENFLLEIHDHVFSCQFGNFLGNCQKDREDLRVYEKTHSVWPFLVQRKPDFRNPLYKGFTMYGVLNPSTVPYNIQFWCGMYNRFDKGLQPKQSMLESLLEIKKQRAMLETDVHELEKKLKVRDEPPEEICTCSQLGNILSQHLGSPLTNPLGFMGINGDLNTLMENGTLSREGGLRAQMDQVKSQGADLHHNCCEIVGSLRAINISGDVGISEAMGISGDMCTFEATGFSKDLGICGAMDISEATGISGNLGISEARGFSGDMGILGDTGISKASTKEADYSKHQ
# UniProt Q49AM1: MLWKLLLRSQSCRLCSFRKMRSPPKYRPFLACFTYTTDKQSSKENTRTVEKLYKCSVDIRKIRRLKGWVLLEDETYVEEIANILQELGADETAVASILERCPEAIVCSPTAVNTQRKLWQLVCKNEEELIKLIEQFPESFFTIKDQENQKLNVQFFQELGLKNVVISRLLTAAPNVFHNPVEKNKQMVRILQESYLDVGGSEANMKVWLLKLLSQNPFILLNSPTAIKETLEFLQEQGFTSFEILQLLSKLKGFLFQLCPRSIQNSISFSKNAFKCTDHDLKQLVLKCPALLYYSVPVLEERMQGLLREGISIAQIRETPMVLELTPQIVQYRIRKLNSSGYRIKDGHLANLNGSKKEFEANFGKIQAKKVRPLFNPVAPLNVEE
# UniProt Q9UJ68: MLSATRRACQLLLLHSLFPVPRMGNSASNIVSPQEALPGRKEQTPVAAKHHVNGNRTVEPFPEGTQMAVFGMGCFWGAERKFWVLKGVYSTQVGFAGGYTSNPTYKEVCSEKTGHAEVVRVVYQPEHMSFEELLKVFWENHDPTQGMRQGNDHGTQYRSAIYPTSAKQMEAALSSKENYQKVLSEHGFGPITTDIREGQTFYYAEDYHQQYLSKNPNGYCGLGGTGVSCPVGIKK
# UniProt Q93083: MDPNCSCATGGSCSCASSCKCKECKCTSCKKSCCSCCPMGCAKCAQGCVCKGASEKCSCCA
# What was measured:
# Experiment in all cases: log2 fold change, soluble protein after heating vs DMSO (PISA); higher = thermal stabilisation; K562 lysate, 10 uM; active = over 0.2 and 3.5 SD of the protein, either way, in both replicates (recomputed)
# [1] = compound: CCCS(=O)(=O)Nc1ccc(F)c(C(=O)c2c[nH]c3ncc(Cl)cc23)c1F
# In short: (§1)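 Soluble protein was defined as the supernatant remaining after 21,000xg for 90 min, following pooling of heated aliquots and adjustment to 0.5% NP-40 at 4°C. Before that, crude K562 extract at 1 mg/mL protein in PBS pH 7.4 with 1 mM MgCl2 was treated with 10 μM compound for 30 min and heated for 3 min across 48°C-58°C. Quantification used TMTpro 16plex LC-MS/MS with channel sums equalised, and values are log-two fold changes in thermal stability relative to solvent controls from duplicates.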
# volasertib = compound: CC[C@@H]1C(=O)N(C)c2cnc(Nc3ccc(C(=O)N[C@H]4CC[C@H](N5CCN(CC6CC6)CC5)CC4)cc3OC)nc2N1C(C)C [volasertib]
# In short: as §1
# [2] = compound: CCn1c(C(=O)N(C2CC2)C2CC2)cc2c3c(ncn3C)c(Nc3cc(C)n(C)n3)nc21
# In short: as §1
# saracatinib = compound: CN1CCN(CCOc2cc(OC3CCOCC3)c3c(Nc4c(Cl)ccc5c4OCO5)ncnc3c2)CC1 [saracatinib]
# In short: as §1
# sotrastaurin = compound: CN1CCN(c2nc(C3=C(c4c[nH]c5ccccc45)C(=O)NC3=O)c3ccccc3n2)CC1 [sotrastaurin]
# In short: as §1
# Tubastatin A = compound: CN1CCc2c(c3ccccc3n2Cc2ccc(C(=O)NO)cc2)C1 [Tubastatin A]
# In short: as §1
# [3] = compound: CNc1nc(-c2ccc3c(N)n[nH]c3c2)cc(N2C[C@@H](C(=O)NC3CCCCC3)CC[C@H]2C)n1
# In short: as §1
# alisertib = compound: COc1cc(Nc2ncc3c(n2)-c2ccc(Cl)cc2C(c2c(F)cccc2OC)=NC3)ccc1C(=O)O [alisertib]
# In short: as §1
# [4] = compound: COc1cc2nc(-c3cc(F)ccc3O)nc(N[C@@H]3CNC[C@H]3C(C)(C)O)c2cc1OC
# In short: as §1
# gefitinib = compound: COc1cc2ncnc(Nc3ccc(F)c(Cl)c3)c2cc1OCCCN1CCOCC1 [gefitinib]
# In short: as §1
# vemurafenib = compound: CCCS(=O)(=O)Nc1ccc(F)c(C(=O)c2c[nH]c3ncc(-c4ccc(Cl)cc4)cc23)c1F [vemurafenib]
# In short: as §1
# [5] = compound: CCn1cc(-c2ccnc3[nH]c(-c4cccc(CN(C)C)c4)cc23)c(-c2ccc(NC(=O)N(C)C)cc2)n1
# In short: as §1
# [6] = compound: CN1CCC(CNc2ccc3ncc(-c4cccc(OC(F)(F)F)c4)n3n2)CC1
# In short: as §1
# alvocidib = compound: CN1CC[C@H](c2c(O)cc(O)c3c(=O)cc(-c4ccccc4Cl)oc23)[C@H](O)C1 [alvocidib]
# In short: as §1
# defactinib = compound: CNC(=O)c1ccc(Nc2ncc(C(F)(F)F)c(NCc3nccnc3N(C)S(C)(=O)=O)n2)cc1 [defactinib]
# In short: as §1
# barasertib = compound: CCN(CCCOc1ccc2c(Nc3cc(CC(=O)Nc4cccc(F)c4)[nH]n3)ncnc2c1)CCOP(=O)(O)O [barasertib]
# In short: as §1
# [7] = compound: CC[C@@H]1C(=O)N(C)c2cnc(Nc3ccc(C(=O)NC4CCN(C)CC4)cc3OC)nc2N1C1CCCC1
# In short: as §1
# [8] = compound: CNC(=O)C1=CC=CC=C1NC2=NC(=NC=C2Cl)NC3=C(C=C(C=C3)N4CCOCC4)OC
# In short: as §1
# encorafenib = compound: COC(=O)N[C@@H](C)CNc1nccc(-c2cn(C(C)C)nc2-c2cc(Cl)cc(NS(C)(=O)=O)c2F)n1 [encorafenib]
# In short: as §1
# [9] = compound: COC(=O)[C@H](CCSC)NC(=O)C1=C(C=C(C=C1)NC[C@H](CS)N)C2=CC=CC=C2
# In short: as §1
Target,log2 fold change [1],log2 fold change (volasertib),log2 fold change [2],log2 fold change (saracatinib),log2 fold change (sotrastaurin),log2 fold change (Tubastatin A),log2 fold change [3],log2 fold change (alisertib),log2 fold change [4],log2 fold change (gefitinib),log2 fold change (vemurafenib),log2 fold change [5],log2 fold change [6],log2 fold change (alvocidib),log2 fold change (defactinib),log2 fold change (barasertib),log2 fold change [7],log2 fold change [8],log2 fold change (encorafenib),log2 fold change [9]
MTSS1 isoform 5 (UniProt O43312),inactive: -0.375,inactive: -0.166,inactive: -0.557,inactive: -0.21,inactive: 0.04,inactive: 0.627,inactive: -0.736,inactive: -0.622,inactive: -0.233,inactive: 0.177,–,–,–,–,–,–,–,–,–,–
MSH4 (UniProt O15457),–,–,inactive: 0.133,–,–,inactive: -0.05,–,–,–,–,inactive: -0.145,inactive: -0.345,inactive: 0.142,inactive: -0.021,inactive: 0.271,–,–,–,–,–
MRPL30 isoform 2 (UniProt Q8TCC3),inactive: 0.002,inactive: -0.013,inactive: -0.027,inactive: 0.01,inactive: 0.016,inactive: 0.034,inactive: -0.002,inactive: -0.033,inactive: -0.003,inactive: -0.013,–,active: 0.563,active: -0.434,active: 0.419,–,inactive: 0.002,inactive: -0.068,inactive: -0.003,inactive: -0.049,inactive: -0.034
MTMR8 (UniProt Q96EF0),–,–,–,inactive: -0.143,–,–,inactive: -0.114,–,–,–,–,–,–,–,–,inactive: 0.087,–,inactive: 0.064,–,–
MTERF2 (UniProt Q49AM1),–,–,inactive: 0.112,inactive: 0.068,inactive: 0.094,inactive: 0.145,inactive: 0.03,–,–,–,–,–,–,–,–,–,inactive: -0.03,inactive: -0.043,inactive: -0.049,inactive: 0.282
MSRA (UniProt Q9UJ68),inactive: -0.039,inactive: -0.033,–,–,–,–,–,–,inactive: 0.08,–,–,inactive: 0.151,inactive: -0.143,inactive: 0.017,–,–,inactive: -0.092,–,inactive: 0.216,inactive: 0.225
MT1L (UniProt Q93083),–,–,–,–,inactive: 0.054,–,–,–,–,–,–,inactive: 0.12,inactive: -0.012,inactive: 0.028,–,inactive: 0.132,–,–,–,–
MRPS2 (UniProt Q9Y399),inactive: 0.002,inactive: -0.013,inactive: 0.057,inactive: 0.003,inactive: 0.05,inactive: -0.093,inactive: -0.165,inactive: 0.01,inactive: -0.019,inactive: -0.048,inactive: -0.014,inactive: -0.001,inactive: -0.071,inactive: 0.057,inactive: 0.032,–,inactive: -0.158,inactive: -0.006,inactive: -0.012,inactive: 0.01

# As entered above.
# In log2 fold change (sotrastaurin), MT1L (UniProt Q93083) is listed with inactive: 0.054
# In log2 fold change [5], MSRA (UniProt Q9UJ68) is listed with inactive: 0.151
